Experimental data taken from PubChem BioAssay AID248 (DTP/NCI, 2004).
The list shows only some results of the screen, not a fair sample: it is rich in T/C values a quarter to a half above the control, in often repeated tests (any T/C) and in doses without a T/C. Other doses and runs of a compound stand elsewhere. T/C: endpoint of the treated group in % of that of the vehicle group. Some entries give survivors of the animals treated and no T/C: the source holds a T/C of zero for them, seemingly a mark for toxic or unscored doses. Some doses without a T/C left all or most animals alive at the check, yet need not have been tolerated: the source hardly ever lists a survival T/C far under the control, and the zero likely stands for such cases as well. Survivors were counted at the toxicity check, usually on the fifth day, unless a day is given; later deaths do not show. Schedule codes are those of the source, taken here to give the interval after Q, in days (D) or hours (H), and the number of doses after X. Some schedule codes hold Z or #, which are not explained here. Some entries hold several experiments; the results are listed from low to high. Where survival is the endpoint, the PubChem record calls one and a half times the control and up active, and a quarter to a half above the control has no call in these data; cut-offs in other NCI protocols can differ. Some T/C values are followed by the survivors on the day toxicity was checked, most often the fifth; where none is given, no animal had died by that day.

System: L1210 leukemia ip in BDF1 mice, survival T/C
Assay: NCI In Vivo Anticancer Drug Screen. Data for tumor model L1210 Leukemia (intraperitoneal) in B6D2F1 (BDF1) mice
Conditions: higher T/C = longer survival
[1] = T/C endpoint: mean survival time, dose: 320.0 mg/kg/injection, schedule: Q01DX Z (ip), vehicle: saline

In the case of `CC1CC(C#N)Nc2ccccc2N1` (configuration not stated), the T/C (T/C endpoint: mean survival time, dose: 200.0 mg/kg/injection, schedule: Q01DX009 (ip), vehicle: Klucel (hydroxypropylcellulose) (HPC)) is reported as 125 % of control, the survivor count (T/C endpoint: mean survival time, dose: 400.0 mg/kg/injection, schedule: Q01DX001 (ip), vehicle: Klucel (hydroxypropylcellulose) (HPC)) is reported as 1 of 6 and the survivor count (T/C endpoint: mean survival time, dose: 400.0 mg/kg/injection, schedule: Q01DX009 (ip), vehicle: Klucel (hydroxypropylcellulose) (HPC)) is reported as 0 of 6. For the same compound, the survivor count (T/C endpoint: mean survival time, dose: 400.0 mg/kg/injection, schedule: Q04DX003 (ip), vehicle: Klucel (hydroxypropylcellulose) (HPC)) was 1 of 6.
`CC(C)NCC(=O)c1ccc(O)c(O)c1` was tested, and the survivor count (T/C endpoint: mean survival time, dose: 10.0 mg/kg/injection, schedule: Q#A X Z (ip), vehicle: methylcellulose (MC)) was 1 of 6, the survivor count (T/C endpoint: mean survival time, dose: 20.0 mg/kg/injection, schedule: Q01DX Z (ip), vehicle: saline) was 6 of 6 and the survivor count (T/C endpoint: mean survival time, dose: 40.0 mg/kg/injection, schedule: Q#A X Z (ip), vehicle: methylcellulose (MC)) was 2 of 6. The survivor count (T/C endpoint: mean survival time, dose: 60.0 mg/kg/injection, schedule: Q03DX Z (ip), vehicle: methylcellulose (MC)) was 3 of 6, the T/C (T/C endpoint: mean survival time, dose: 74.0 mg/kg/injection, schedule: Q01DX Z (ip), vehicle: saline) was 130 % of control and the survivor count (T/C endpoint: mean survival time, dose: 80.0 mg/kg/injection, schedule: Q#A X Z (ip), vehicle: methylcellulose (MC)) was 2 of 6. The T/C (T/C endpoint: mean survival time, dose: 111.0 mg/kg/injection, schedule: Q01DX Z (ip), vehicle: saline) was 136 % of control, the survivor count (T/C endpoint: mean survival time, dose: 140.0 mg/kg/injection, schedule: Q07DX Z (ip), vehicle: methylcellulose (MC)) was 1 of 6 and the survivor count (T/C endpoint: mean survival time, dose: 160.0 mg/kg/injection, schedule: Q#A X Z (ip), vehicle: methylcellulose (MC)) was 2 of 6. For the same compound, the T/C (T/C endpoint: mean survival time, dose: 166.0 mg/kg/injection, schedule: Q01DX Z (ip), vehicle: saline) was 131 % of control, the T/C (T/C endpoint: mean survival time, dose: 200.0 mg/kg/injection, schedule: Q01DX Z (ip), vehicle: carboxymethylcellulose (CMC)) was 125 % of control and the T/C (T/C endpoint: mean survival time, dose: 250.0 mg/kg/injection, schedule: Q01DX Z (ip), vehicle: carboxymethylcellulose (CMC)) was 127 % of control. The T/C (T/C endpoint: mean survival time, dose: 250.0 mg/kg/injection, schedule: Q01DX Z (ip), vehicle: saline) was 135 % of control, the survivor count (T/C endpoint: mean survival time, dose: 280.0 mg/kg/injection, schedule: Q07DX Z (ip), vehicle: methylcellulose (MC)) was 2 of 6 and the survivor count (T/C endpoint: mean survival time, dose: 288.0 mg/kg/injection, schedule: Q04DX003 (ip), vehicle: saline) was 10 of 10. For the same compound, the T/C [1] was 131 % of control [5 of 6 alive], the survivor count [1] was 0 of 6 and the survivor count (T/C endpoint: mean survival time, dose: 320.0 mg/kg/injection, schedule: Q#A X Z (ip), vehicle: methylcellulose (MC)) was 0 of 6. For the same compound, the survivor count (T/C endpoint: mean survival time, dose: 430.0 mg/kg/injection, schedule: Q01DX001 (ip), vehicle: saline) was 6 of 10, the survivor count (T/C endpoint: mean survival time, dose: 478.0 mg/kg/injection, schedule: Q03HX024 (ip), vehicle: saline) was 1 of 10 and the survivor count (T/C endpoint: mean survival time, dose: 500.0 mg/kg/injection, schedule: Q01DX Z (ip), vehicle: carboxymethylcellulose (CMC)) was 0 of 6. For the same compound, the survivor count (T/C endpoint: mean survival time, dose: 560.0 mg/kg/injection, schedule: Q07DX Z (ip), vehicle: methylcellulose (MC)) was 2 of 6, the survivor count (T/C endpoint: mean survival time, dose: 642.0 mg/kg/injection, schedule: Q01DX001 (ip), vehicle: saline) was 0 of 10 and the survivor count (T/C endpoint: mean survival time, dose: 642.0 mg/kg/injection, schedule: Q04DX003 (ip), vehicle: saline) was 0 of 10. The survivor count (T/C endpoint: mean survival time, dose: 717.0 mg/kg/injection, schedule: Q01DX009 (ip), vehicle: saline) was 0 of 10, the survivor count (T/C endpoint: mean survival time, dose: 717.0 mg/kg/injection, schedule: Q03HX024 (ip), vehicle: saline) was 0 of 10 and the survivor count (T/C endpoint: mean survival time, dose: 958.0 mg/kg/injection, schedule: Q01DX001 (ip), vehicle: saline) was 0 of 10. For the same compound, the survivor count (T/C endpoint: mean survival time, dose: 958.0 mg/kg/injection, schedule: Q04DX003 (ip), vehicle: saline) was 0 of 10, the survivor count (T/C endpoint: mean survival time, dose: 960.0 mg/kg/injection, schedule: Q03DX Z (ip), vehicle: methylcellulose (MC)) was 0 of 6 and the survivor count (T/C endpoint: mean survival time, dose: 1000.0 mg/kg/injection, schedule: Q01DX Z (ip), vehicle: carboxymethylcellulose (CMC)) was 0 of 6. For the same compound, the survivor count (T/C endpoint: mean survival time, dose: 1120.0 mg/kg/injection, schedule: Q07DX Z (ip), vehicle: methylcellulose (MC)) was 0 of 6, the survivor count (T/C endpoint: mean survival time, dose: 1430.0 mg/kg/injection, schedule: Q01DX001 (ip), vehicle: saline) was 0 of 10 and the survivor count (T/C endpoint: mean survival time, dose: 1430.0 mg/kg/injection, schedule: Q04DX003 (ip), vehicle: saline) was 0 of 10. For the same compound, the survivor count (T/C endpoint: mean survival time, dose: 2100.0 mg/kg/injection, schedule: Q01DX001 (ip), vehicle: saline) was 0 of 10, the survivor count (T/C endpoint: mean survival time, dose: 2100.0 mg/kg/injection, schedule: Q04DX003 (ip), vehicle: saline) was 0 of 10 and the survivor count (T/C endpoint: mean survival time, dose: 3200.0 mg/kg/injection, schedule: Q01DX001 (ip), vehicle: saline) was 0 of 10. The survivor count (T/C endpoint: mean survival time, dose: 3200.0 mg/kg/injection, schedule: Q04DX003 (ip), vehicle: saline) was 0 of 10, the survivor count (T/C endpoint: mean survival time, dose: 4780.0 mg/kg/injection, schedule: Q01DX001 (ip), vehicle: saline) was 0 of 10 and the survivor count (T/C endpoint: mean survival time, dose: 4780.0 mg/kg/injection, schedule: Q04DX003 (ip), vehicle: saline) was 0 of 10. For the same compound, the survivor count (T/C endpoint: mean survival time, dose: 7170.0 mg/kg/injection, schedule: Q01DX001 (ip), vehicle: saline) was 0 of 10 and the survivor count (T/C endpoint: mean survival time, dose: 7170.0 mg/kg/injection, schedule: Q04DX003 (ip), vehicle: saline) was 0 of 10.
With `CC(=O)c1cccc(NC2C(N)C(NC(=O)N(C)C)(C(C)O)C(C)(O)C2(O)COC(=O)c2c(C)cccc2O)c1` (configuration not stated) the survivor count (T/C endpoint: mean survival time, dose: 6.0 mg/kg/injection, schedule: Q01DX015 (ip), vehicle: carboxymethylcellulose (CMC)) was 5 of 6 and the survivor count (T/C endpoint: median survival time, dose: 32.0 mg/kg/injection, schedule: Q04DX003 (ip), vehicle: acid diluted with saline) was 3 of 8.
`CCOC(=O)c1ccc(NC(=O)c2ccc(Cl)cc2Cl)cc1` was tested, and the survivor count (T/C endpoint: mean survival time, dose: 400.0 mg/kg/injection, schedule: Q01DX009 (ip), vehicle: saline with Tween-80) was 0 of 3 and 2 of 6.
`CC1=C[S+](c2ccccc2)c2cccc3cc4ccccc4c1c23` (configuration not stated) was tested, and the survivor count (T/C endpoint: mean survival time, dose: 5.0 mg/kg/injection, schedule: Q01DX009 (ip), vehicle: saline with Tween-80) was 1 of 6 and the survivor count (T/C endpoint: mean survival time, dose: 10.0 mg/kg/injection, schedule: Q01DX009 (ip), vehicle: saline with Tween-80) was 2 of 6.
With `CC(=O)Oc1ccc2ccccc2c1/C=C/c1ccncc1` the survivor count (T/C endpoint: mean survival time, dose: 100.0 mg/kg/injection, schedule: Q01DX009 (ip), vehicle: saline) was 3 of 6, the survivor count (T/C endpoint: mean survival time, dose: 200.0 mg/kg/injection, schedule: Q04DX003 (ip), vehicle: saline) was 5 of 6 and the survivor count (T/C endpoint: mean survival time, dose: 400.0 mg/kg/injection, schedule: Q04DX003 (ip), vehicle: saline) was 5 of 6.
`CNC(=N)c1ccc(NC(=N)c2ccc(NC(=N)c3ccc(NC(=O)c4ccc(C(=N)NC)cc4)cc3)cc2)cc1` was tested, and the T/C (T/C endpoint: mean survival time, dose: 20.0 mg/kg/injection, schedule: Q01DX015 (ip), vehicle: water) was 126 % of control [5 of 6 alive], the T/C (T/C endpoint: mean survival time, dose: 40.0 mg/kg/injection, schedule: Q01DX Z (ip), vehicle: water) was 127 % of control and the survivor count (T/C endpoint: mean survival time, dose: 75.0 mg/kg/injection, schedule: Q01DX015 (ip), vehicle: water) was 0 of 6. For the same compound, the survivor count (T/C endpoint: mean survival time, dose: 80.0 mg/kg/injection, schedule: Q01DX Z (ip), vehicle: water) was 0 of 6 and the survivor count (T/C endpoint: mean survival time, dose: 160.0 mg/kg/injection, schedule: Q01DX Z (ip), vehicle: water) was 0 of 6.
For `CCCOc1ccc(C)cc1`, the survivor count (T/C endpoint: mean survival time, dose: 400.0 mg/kg/injection, schedule: Q01DX001 (ip), vehicle: saline) was 0 of 4.
For `C[C@]12CC[C@@H]3c4cc([N+]#N)c([O-])cc4CC[C@H]3[C@@H]1CCC2=O`, the survivor count (T/C endpoint: mean survival time, dose: 100.0 mg/kg/injection, schedule: Q01DX009 (ip), vehicle: Klucel (hydroxypropylcellulose) (HPC)) was 0 of 6, the survivor count (T/C endpoint: mean survival time, dose: 200.0 mg/kg/injection, schedule: Q04DX002 (ip), vehicle: Klucel (hydroxypropylcellulose) (HPC)) was 2 of 3 and the survivor count (T/C endpoint: mean survival time, dose: 400.0 mg/kg/injection, schedule: Q04DX002 (ip), vehicle: Klucel (hydroxypropylcellulose) (HPC)) was 0 of 3.
With `COc1ccc(CN2CCCN(Cc3ccc(OC)cc3)C2c2c(O)ccc3ccccc23)cc1` the survivor count (T/C endpoint: mean survival time, dose: 80.0 mg/kg/injection, schedule: Q01DX001 (ip), vehicle: acetone) was 2 of 6, the survivor count (T/C endpoint: mean survival time, dose: 100.0 mg/kg/injection, schedule: Q01DX001 (ip), vehicle: acetone) was 0 of 4 and the survivor count (T/C endpoint: mean survival time, dose: 200.0 mg/kg/injection, schedule: Q01DX001 (ip), vehicle: acetone) was 0 of 4. For the same compound, the survivor count (T/C endpoint: mean survival time, dose: 400.0 mg/kg/injection, schedule: Q01DX001 (ip), vehicle: acetone) was 0 of 4.
With `CC(=O)N\C(N)=N/N=C\C(C)=N/N=C(\N)NC(C)=O` the survivor count (T/C endpoint: mean survival time, dose: 480.0 mg/kg/injection, schedule: Q01DX Z (ip), vehicle: carboxymethylcellulose (CMC)) was 3 of 6.
